From PMC4403447 come the findings set out here.

By UniProt entry, the sequences of proteins in these tests, tags left out. Where a name states a change or a piece, a line headed by the entry shows the natural chain unless it says otherwise.
UniProt P10591: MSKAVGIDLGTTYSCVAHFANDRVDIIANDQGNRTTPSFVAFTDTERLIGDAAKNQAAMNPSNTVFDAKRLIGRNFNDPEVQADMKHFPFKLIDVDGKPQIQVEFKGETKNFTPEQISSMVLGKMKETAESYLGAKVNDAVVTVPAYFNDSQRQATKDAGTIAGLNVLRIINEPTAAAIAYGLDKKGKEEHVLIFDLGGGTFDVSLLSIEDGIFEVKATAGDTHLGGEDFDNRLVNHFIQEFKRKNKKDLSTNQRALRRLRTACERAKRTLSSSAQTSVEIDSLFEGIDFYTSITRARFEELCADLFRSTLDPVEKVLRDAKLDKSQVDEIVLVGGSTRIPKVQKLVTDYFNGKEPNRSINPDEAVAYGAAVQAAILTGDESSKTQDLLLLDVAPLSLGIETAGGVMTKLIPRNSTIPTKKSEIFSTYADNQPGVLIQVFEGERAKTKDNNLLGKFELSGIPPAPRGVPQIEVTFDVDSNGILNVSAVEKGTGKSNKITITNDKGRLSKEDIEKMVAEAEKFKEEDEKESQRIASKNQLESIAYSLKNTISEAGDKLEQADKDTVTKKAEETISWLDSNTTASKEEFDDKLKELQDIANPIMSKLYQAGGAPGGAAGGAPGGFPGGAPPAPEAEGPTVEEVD
UniProt P15705: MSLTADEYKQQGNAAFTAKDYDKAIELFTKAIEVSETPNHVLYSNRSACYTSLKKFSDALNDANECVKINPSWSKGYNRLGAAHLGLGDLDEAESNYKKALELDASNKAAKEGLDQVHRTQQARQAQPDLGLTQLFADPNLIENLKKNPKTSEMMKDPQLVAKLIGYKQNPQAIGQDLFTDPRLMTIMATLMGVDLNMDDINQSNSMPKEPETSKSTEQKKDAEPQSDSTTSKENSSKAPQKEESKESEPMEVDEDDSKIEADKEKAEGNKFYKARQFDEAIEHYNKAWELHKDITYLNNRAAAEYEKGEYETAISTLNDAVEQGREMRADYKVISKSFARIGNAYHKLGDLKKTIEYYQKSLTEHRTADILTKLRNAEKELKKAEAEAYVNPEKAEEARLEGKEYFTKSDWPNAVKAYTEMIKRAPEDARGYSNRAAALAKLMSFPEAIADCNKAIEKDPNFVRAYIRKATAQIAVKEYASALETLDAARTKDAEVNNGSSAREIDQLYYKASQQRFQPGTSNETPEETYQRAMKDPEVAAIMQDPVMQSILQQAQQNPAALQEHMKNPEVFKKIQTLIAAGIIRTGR

Results are given in words; binding and its absence hold for the method and conditions named. A result given as binding can be weak or reduced; the word gives no strength.

The assay addresses yHsp70 (Ssa1) (yeast) (UniProt P10591). Nature of the assay: SPR; Hsp70 amine-coupled to a CM5 chip, Sti1 variants as analyte; 40 mM Hepes pH 7.5, 20 mM KCl, 5 mM MgCl2, 0.005% Tween; 10 μl/min; 20 °C; Langmuir isotherm; affinities shown normalized to wild-type Sti1; both purified. In general terms: Surface plasmon resonance follows binding to a sensor surface in real time, without labels.

Sti1 Δlinker N39A (from UniProt P15705): the binding result is recorded as “binds”.
